# Measurements reported in PubChem BioAssay AID1508597 (Cure First, 2020)
# Aim: 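Genes whose silencing sensitises or protects ovarian cancer cells against rucaparib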 (primary screen)
# Cells: human ovarian carcinoma lines grown from tumours: OCI-P5x (papillary serous) and OCI-C5x (clear cell)
# Reagent: siRNA pool against human genes, 1.25 pmol siRNA per well
# Timing: 72 h or 96 h, depending on the cell culture
# Treatment: rucaparib 20 µM (about IC30) or vehicle, present until read-out
# Rucaparib or vehicle: Rucaparib
# Cell line: OCI-C5x (clear cell)
# Read-out: 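Luminescent ATP-based viability assay read 72 or 96 h after transfection, depending on culture, given as normalised percent viability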
# Direction: viability, normalised: higher = more viable cells remaining
# Active means: 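a well counts as a hit if its normalised viability is under 80 percent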
# Calls: active = viability under 80%; inactive = viability 80% or more
# Shown is an unselected part of the about 2,100 reagents, in one setting of the screen. 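Calls flag viability under 80% in either arm, not effects specific to rucaparib; the reference for percent is not stated.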 Some reagents were tested in more than one well and are listed for each. No sequences are given here. Not given: the 100% reference.
gene knocked down,technical replicate,"viability, normalised (%)",activity call
PLCG1,1,67,active
PLCG1,2,62.5,active
PLCG1,3,51.2,active
CLDN11,1,49.2,active
CLDN11,2,44.5,active
CLDN11,3,38.8,active
CBX1,1,66.1,active
CBX1,2,52.2,active
CBX1,3,54.7,active
ZBTB7A,1,57.5,active
ZBTB7A,2,53,active
ZBTB7A,3,53.7,active
TNP1,1,75.2,active
TNP1,2,74.1,active
TNP1,3,50.5,active
IL4,1,36.8,active
IL4,2,44.6,active
IL4,3,50.5,active
CDC42BPA,1,49,active
CDC42BPA,2,55.5,active
CDC42BPA,3,62.8,active
LHCGR,1,37.5,active
LHCGR,2,43.5,active
LHCGR,3,49.6,active

Quoted from above, 6 entries:
gene knocked down,technical replicate,"viability, normalised (%)",activity call
TNP1,1,75.2,active
TNP1,2,74.1,active
TNP1,3,50.5,active
IL4,1,36.8,active
IL4,2,44.6,active
IL4,3,50.5,active

The results go on:
gene knocked down,technical replicate,"viability, normalised (%)",activity call
PRDM10,1,47,active
PRDM10,2,45.5,active
PRDM10,3,40.1,active
POLD1,1,44.3,active
POLD1,2,54.7,active
POLD1,3,49.8,active
ULK4,1,47.3,active
ULK4,2,50.9,active
ULK4,3,32.2,active
KAT6A,1,34.8,active
KAT6A,2,45.4,active
KAT6A,3,44.5,active
GNPAT,1,41.1,active
GNPAT,2,59.9,active
GNPAT,3,58,active
DDX17,1,73,active
DDX17,1,70.1,active
DDX17,2,44.4,active
DDX17,2,52.7,active
DDX17,3,46.6,active
DDX17,3,62.6,active
MSL3,1,47.7,active
MSL3,2,48.4,active
MSL3,3,45.9,active
TREX1,1,51.4,active
TREX1,2,43,active
TREX1,3,46.6,active
PRKD2,1,49.6,active
PRKD2,2,39.9,active
PRKD2,3,38.9,active
SP110,1,30,active
SP110,2,28,active
SP110,3,28.5,active
